Results are percentages, as filed.
The controls that fix the scale are not given in the record; negative values are as filed.
The compounds are a random part of those screened.

Amino acid sequences for entries named in this document (tags omitted).
UniProt E9BF75, entry or part of it: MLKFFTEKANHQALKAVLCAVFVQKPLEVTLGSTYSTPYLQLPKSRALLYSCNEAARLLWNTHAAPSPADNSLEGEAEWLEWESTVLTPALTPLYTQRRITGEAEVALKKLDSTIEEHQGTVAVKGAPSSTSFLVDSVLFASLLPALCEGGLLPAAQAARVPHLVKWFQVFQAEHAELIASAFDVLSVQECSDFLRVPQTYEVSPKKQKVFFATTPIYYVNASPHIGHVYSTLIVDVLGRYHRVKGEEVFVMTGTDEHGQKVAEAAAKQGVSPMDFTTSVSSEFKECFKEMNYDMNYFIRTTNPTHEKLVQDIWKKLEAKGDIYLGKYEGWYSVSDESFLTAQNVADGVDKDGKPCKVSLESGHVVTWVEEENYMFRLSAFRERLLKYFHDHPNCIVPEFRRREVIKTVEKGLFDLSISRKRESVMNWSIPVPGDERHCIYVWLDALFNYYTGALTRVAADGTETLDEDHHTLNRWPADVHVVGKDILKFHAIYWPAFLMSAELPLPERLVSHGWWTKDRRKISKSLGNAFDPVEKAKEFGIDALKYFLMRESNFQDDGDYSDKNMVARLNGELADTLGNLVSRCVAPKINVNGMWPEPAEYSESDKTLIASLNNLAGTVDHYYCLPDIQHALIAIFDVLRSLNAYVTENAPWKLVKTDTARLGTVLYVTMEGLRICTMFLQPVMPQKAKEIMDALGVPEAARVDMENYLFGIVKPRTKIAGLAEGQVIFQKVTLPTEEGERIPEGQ

LdMetRS: 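Methionyl-tRNA synthetase (putative), Leishmania donovani (UniProt E9BF75). Primary screen of methionyl-tRNA synthetase; the read-out is not stated. The test concentration is not given. Values are per cent inhibition. Of about 68,000 compounds tested this way, about 24 (0.035%) reached 50% or more in at least one test.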
Mtb heat-shock: 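Assay on Mycobacterium tuberculosis, filed only as a heat shock assay from Cornell; the read-out is not stated. The concentration is filed as 10 mM, unlikely as a test dose, so the dose is not known. The record gives no direction; compounds that gave an IC50 in retests scored well above the rest, so higher reads as stronger inhibition. About 69,000 compounds were tested under these conditions; 1.4% (about 930) showed 50% or more at least once.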

CN(C)c1nc(N)nc(CN2CCC(c3ccccc3)CC2)n1 read LdMetRS: 17.82%; Mtb heat-shock: -95.01%.
O=C(NCC(O)c1ccc(F)c(F)c1)c1cccnc1O (centres undefined) read LdMetRS: 9.5%; Mtb heat-shock: 3.129%.
O=C(O)C1(Cc2cc(-c3ccc(F)cc3F)no2)CCOCC1 read LdMetRS: 2.397%; Mtb heat-shock: -21.85%.
O=C(NC1CCCCC1)N1CCCC1c1nnc2n1CCNC2 (centres undefined) read LdMetRS: 9.714%; Mtb heat-shock: -46.26%.
Cc1ccc(CN2CCn3c(C(=O)N(C)C)cnc3C2)cc1.O=C(O)C(F)(F)F read Mtb heat-shock: 1.806%.
CC(C)C(C)N(Cc1cnc2ccccc2n1)Cc1ccco1 (centres undefined) read LdMetRS: 8.732%; Mtb heat-shock: 35.82%.
COCCN1C[C@@H]2CN(C(=O)CC3CC3)C[C@@H]2C1=O read LdMetRS: 13.89%.
CCN1CCCC12CCN(C(=O)c1nccn1C)CC2 read LdMetRS: 11.5%.
CCOCc1cccc(S(=O)(=O)N2CCSCC2)c1 read LdMetRS: 19.5%; Mtb heat-shock: 1.294%.
c1cncc(NCCNC2CCSCC2)c1 read LdMetRS: 12.47%; Mtb heat-shock: -44.35%.
CCc1ncc(CN2CCN(c3cc(NC4CC4)nc(N)n3)CC2)cn1 read LdMetRS: 12.89%; Mtb heat-shock: -6.429%.
Cc1cc(C(=O)N2CCC3(CC2)C(=O)NCCN3CC(C)C)c(C)o1 read LdMetRS: 15.33%; Mtb heat-shock: -20.36%.
O=C(O)[C@@H]1CN(CCOCCO)C[C@H]1c1ccccc1 read LdMetRS: 5.136%; Mtb heat-shock: -150.7%.
CCc1cnc(CN2CCC(N(C)Cc3noc(C)n3)C2)o1 (centres undefined) read LdMetRS: 13.64%; Mtb heat-shock: -16.25%.
O=C(c1cccnc1O)N1CCOC(c2ccc(Cl)cc2)C1 (centres undefined) read LdMetRS: 11.96%; Mtb heat-shock: -13.33%.
Cn1ccc(C(=O)NCc2ccc(N3CCOCC3)nc2)cc1=O read LdMetRS: 23.99%; Mtb heat-shock: -16.32%.
Cc1cc(C)n(CC(=O)N2Cc3cnc(C(C)(C)C)nc3C2)n1 read LdMetRS: 19.05%; Mtb heat-shock: -24.42%.
Cl.Cn1nc(C2CCN(C(=O)Cc3cccc(F)c3)CC2)c2cccnc21 read Mtb heat-shock: -11.02%.
[H][C@]12CC(COCc3cccnc3)C[C@]1([H])N(Cc1cccnc1)CCO2 (some centres undefined) read Mtb heat-shock: 36.19%.
COc1ccc(CNC2(Cc3cc(CC(C)C)on3)COC2)cc1 read LdMetRS: 5.085%; Mtb heat-shock: -22.95%.
O=C(O)C(F)(F)F.O=C(O)C(F)(F)F.[H][C@@]12COC[C@]1(CNS(C)(=O)=O)CN(Cc1cccnc1OC)C2 read Mtb heat-shock: -54.94%.
[H][C@@]12C[C@H](C(=O)Nc3ccccc3)[C@@]([H])(CN(S(=O)(=O)c3ccccc3)C1)O2 read Mtb heat-shock: 3.672%.
O=C1COC2(CCN(C(=O)c3cnccn3)CC2)CN1CC1CC1 read LdMetRS: 5.072%; Mtb heat-shock: -12.39%.
Cc1cnc(CNCc2cn(CCN3CCSCC3)nc2C)cn1 read LdMetRS: 4.101%; Mtb heat-shock: -17.7%.
CC(C)c1ncncc1C(=O)N1CCCN(Cc2cccs2)CC1 read LdMetRS: 11.75%; Mtb heat-shock: 7.701%.
O=C(c1cccc(F)c1)N1C[C@H]2CN(Cc3ccccn3)C[C@H]2C1 read LdMetRS: 12.32%.
Cc1nc(CN(C)c2cc(N3CCCC3CO)ncn2)cs1 (centres undefined) read LdMetRS: -2.326%; Mtb heat-shock: -25.46%.
Cc1csc(CN2CCC3(CC2)COC(COCC2CC2)C3)n1 (centres undefined) read LdMetRS: 14.66%.
C1CCC(NCCN2CCOCC2)C1 read LdMetRS: 12.24%; Mtb heat-shock: -23.02%.

The values are deposited in ChEMBL (CHEMBL3988442, “University of Dundee, Small-Polar-MMV Screening Library” (2021)).